Record: PubChem BioAssay AID1671195 (Yale University, 2021)
Here is an unselected part of about 22,000 deposited reagents. Of all reagents, about 1,510 (6.9%) got an active call. 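Active includes knockdowns raising or lowering LDL uptake; positive z-scores mean more uptake, negative mean less.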

Screen: 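Genes whose knockdown alters LDL uptake in liver cancer cells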 (primary screen)
Cells: human Huh7 hepatoma cells
Reagents: siRNA pool against human genes, 18 nM
Duration: about 2 to 2.5 days of knockdown, then 8 h LDL uptake
Conditions: DiI-labelled LDL at 30 µg/ml for 8 h, in lipoprotein-deficient serum medium
Read-out: 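Fluorescent LDL signal imaged in cells, scaled to the plate median, robust z-score for each replicate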
Direction: robust z-score: higher = more LDL uptake after knockdown
Rule for the call: 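a gene counts as active if at least two replicate z-scores exceed ±2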

| target gene | robust z-score, replicate 1 | robust z-score, replicate 2 | robust z-score, replicate 3 | Outcome |
| --- | --- | --- | --- | --- |
| CEP290 (centrosomal protein 290) | 0.278 | 0.137 | 0.666 | inactive |
| C15orf40 (chromosome 15 open reading frame 40) | -0.217 | 0.852 | 0.928 | inactive |
| IQCN (IQ motif containing N) | -0.15 | -0.156 | -0.358 | inactive |
| ANXA6 (annexin A6) | 0.276 | 0.576 | 0.149 | inactive |
| SGSM3 (small G protein signaling modulator 3) | 2.36 | 0.466 | 1.97 | active |
| LOC441346 (retired record) | -0.404 | -0.769 | -0.775 | inactive |
| NHLRC4 (NHL repeat containing 4) | 0.252 | 0.179 | 0.618 | inactive |
| SHCBP1L (SHC binding and spindle associated 1 like) | -1.11 | -1 | -1.13 | inactive |
| OTUD6B (OTU deubiquitinase 6B) | -2.06 | -0.438 | -1.46 | inactive |
| OSM (oncostatin M) | -0.603 | -0.567 | 0.126 | inactive |
| SCNN1G (sodium channel epithelial 1 subunit gamma) | -1.44 | -1.91 | -1.82 | inactive |
| LINC00922 (long independently transcribed non-coding RNA 922) | 0.864 | 0.659 | 0.257 | inactive |
| MYO18A (myosin XVIIIA) | 1.34 | 1.43 | -0.233 | inactive |
| LOC388823 (retired record) | 1.35 | 1.63 | 1.16 | inactive |
| CDK10 (cyclin dependent kinase 10) | 1.3 | 0.754 | 1.81 | inactive |
| NTS (neurotensin) | -0.112 | 0.664 | 0.286 | inactive |
| PCSK6 (proprotein convertase subtilisin/kexin type 6) | -0.367 | 0.746 | 0.187 | inactive |
| FAM32A (family with sequence similarity 32 member A) | 1.81 | 1.7 | 1.73 | inactive |
| APOC1 (apolipoprotein C1) | 1.2 | 1.4 | 0.897 | inactive |
| FMOD (fibromodulin) | -0.853 | -1.51 | -1.34 | inactive |
| ZNF804B (zinc finger protein 804B) | 0.96 | 0.446 | 0.43 | inactive |
| SLC6A4 | 2.72 | 2.83 | 2.59 | active |
| LOC440460 (retired record) | -0.0304 | -0.14 | -0.214 | inactive |
| CKS1B (CDC28 protein kinase regulatory subunit 1B) | -0.0721 | -0.155 | -0.308 | inactive |
| ENTPD1-AS1 (ENTPD1 antisense RNA 1) | -0.218 | 0.547 | 0.166 | inactive |
| HOXA2 (homeobox A2) | -0.431 | -0.279 | -0.517 | inactive |
| ZSCAN22 (zinc finger and SCAN domain containing 22) | 0.0269 | -0.175 | -0.173 | inactive |
| PWP2 (PWP2 small subunit processome component) | -0.109 | 0.116 | 0.0312 | inactive |
| RELN (reelin) | 0.798 | 0.36 | 0.15 | inactive |
| LOC442251 (retired record) | -0.0973 | -0.0572 | 0.149 | inactive |
| PIK3C2G | 0.388 | 1.37 | -0.296 | inactive |
| CEP76 (centrosomal protein 76) | -1.45 | -0.59 | -0.553 | inactive |
| C1orf116 (chromosome 1 open reading frame 116) | 1.43 | 1.75 | 1.23 | inactive |
| LOC389143 (retired record) | 1.03 | 0.439 | 0.879 | inactive |
| INCENP (inner centromere protein) | 0.621 | 0.646 | 0.343 | inactive |
| CKAP5 (cytoskeleton associated protein 5) | -0.659 | -1.36 | -0.552 | inactive |
| LOC388586 (retired record) | -1.15 | -0.865 | -0.82 | inactive |
| ARID1B (AT-rich interaction domain 1B) | -0.332 | 0.829 | 0.278 | inactive |
| GOLGA2P11 (GOLGA2 pseudogene 11) | 2.66 | 3.43 | 2.89 | active |
| RBMXL3 (RBMX like 3) | 0.238 | -0.148 | -0.0838 | inactive |
| DRD4 (dopamine receptor D4) | -1.51 | -0.947 | -1.94 | inactive |

Called active, of those listed so far:
| target gene | robust z-score, replicate 1 | robust z-score, replicate 2 | robust z-score, replicate 3 | Outcome |
| --- | --- | --- | --- | --- |
| SGSM3 (small G protein signaling modulator 3) | 2.36 | 0.466 | 1.97 | active |
| SLC6A4 | 2.72 | 2.83 | 2.59 | active |
| GOLGA2P11 (GOLGA2 pseudogene 11) | 2.66 | 3.43 | 2.89 | active |

Continued:
| target gene | robust z-score, replicate 1 | robust z-score, replicate 2 | robust z-score, replicate 3 | Outcome |
| --- | --- | --- | --- | --- |
| C2orf68 (chromosome 2 open reading frame 68) | 1.17 | 1.34 | 1.96 | inactive |
| ZKSCAN7 (zinc finger with KRAB and SCAN domains 7) | -1.81 | -1.71 | -1.57 | inactive |
| KRTAP5-7 (keratin associated protein 5-7) | 0.587 | -1.02 | -0.457 | inactive |
| ASB15 (ankyrin repeat and SOCS box containing 15) | 0.0542 | -0.323 | -0.84 | inactive |
| ARPC5L (actin related protein 2/3 complex subunit 5 like) | -0.166 | 0.727 | 0.435 | inactive |
| C16orf86 (chromosome 16 open reading frame 86) | -1.3 | -1.33 | -1.43 | inactive |
| CCDC117 (coiled-coil domain containing 117) | 0.114 | 0.123 | -0.885 | inactive |
| ZNF671 (zinc finger protein 671) | 1.25 | 0.761 | 1.08 | inactive |
| POLR2D (RNA polymerase II subunit D) | -0.332 | -0.274 | -0.17 | inactive |
| CDC50B (cell division cycle 50 P4-ATPase accessory subunit B) | -0.139 | 0.0222 | 0.84 | inactive |
| ZNF860 (zinc finger protein 860) | -0.678 | -1.02 | -0.383 | inactive |
| RASGEF1B (RasGEF domain family member 1B) | 0.601 | 0.749 | -0.274 | inactive |
| FZD2 (frizzled class receptor 2) | -0.00496 | 0.404 | 0.896 | inactive |
| MCF2 (MCF.2 cell line derived transforming sequence) | -0.332 | -0.0501 | -0.298 | inactive |
| ZNF567 (zinc finger protein 567) | -0.143 | -0.0311 | -0.381 | inactive |
| SETD7 (SET domain containing 7, histone lysine methyltransferase) | 0.631 | 0.763 | 1.32 | inactive |
| LOC387854 (retired record) | 0.186 | -0.563 | 0.874 | inactive |
| SEC24D (SEC24 homolog D, COPII component) | -0.48 | -0.585 | 0.293 | inactive |
| SLITRK6 (SLIT and NTRK like family member 6) | -0.307 | -1.04 | -0.928 | inactive |
| KCNJ16 (potassium inwardly rectifying channel subfamily J member 16) | -0.618 | -0.254 | -0.403 | inactive |
| LOC391427 (retired record) | 0.535 | -0.186 | -0.444 | inactive |
| FOXL1 (forkhead box L1) | 2.77 | 2.72 | 4 | active |
| CATSPER1 (cation channel sperm associated 1) | 0.09 | -0.296 | 0.388 | inactive |
| SERHL2 (serine hydrolase like 2) | 0.209 | 0.309 | 0.256 | inactive |
| LOC440206 (retired record) | -0.601 | -0.748 | -0.0348 | inactive |
| MPPED2 (metallophosphoesterase domain containing 2) | 0.212 | -0.22 | -0.519 | inactive |
| IER3 (immediate early response 3) | -1.28 | -0.547 | -0.98 | inactive |
| FH (fumarate hydratase) | -1.42 | -0.329 | -1.35 | inactive |
| ZNF444 (zinc finger protein 444) | -0.774 | -0.789 | -0.91 | inactive |
| LINC00355 (long independently transcribed non-coding RNA 355) | -0.972 | -1.38 | -0.113 | inactive |
| MARCHF6 (membrane associated ring-CH-type finger 6) | -0.553 | 1.07 | 0.0814 | inactive |
| UBR5 (ubiquitin protein ligase E3 component n-recognin 5) | -0.967 | -1.48 | -0.393 | inactive |
| ULK2 (unc-51 like autophagy activating kinase 2) | -0.125 | -0.614 | 0.0585 | inactive |
| BZW1P2 (basic leucine zipper and W2 domains 1 pseudogene 2) | -0.174 | -1.2 | -0.699 | inactive |
| DUSP7 (dual specificity phosphatase 7) | 0.949 | 1.35 | 1.05 | inactive |
| AKIRIN2 (akirin 2) | -0.724 | 0.941 | -0.307 | inactive |
| UNC13A (unc-13 homolog A) | 0.744 | 1.16 | 0.74 | inactive |
| LOC401456 (retired record) | -1.27 | -1.2 | -1.06 | inactive |
| G6PC3 (glucose-6-phosphatase catalytic subunit 3) | -0.154 | -0.233 | -0.414 | inactive |
| CFAP73 (cilia and flagella associated protein 73) | 0.441 | 1.03 | 0.877 | inactive |
| LOC388622 (retired record) | -0.176 | -0.412 | -0.262 | inactive |
| ROBO1 (roundabout guidance receptor 1) | 0.448 | 0.224 | 1.53 | inactive |
| ZNF724 (zinc finger protein 724) | 0.479 | 0.204 | 0.148 | inactive |
| UBFD1 (ubiquitin family domain containing 1) | -0.246 | 0.989 | -1.03 | inactive |
| BMAL1 (basic helix-loop-helix ARNT like 1) | 1.14 | 1.23 | 1.42 | inactive |
| RPL19 (ribosomal protein L19) | -1.21 | -1.44 | -0.706 | inactive |
